Holding throughout (conditions): stereoisomer not certain
The target of one assay is T1, UniProt A2ATE5.
T1 sequence (whole entry): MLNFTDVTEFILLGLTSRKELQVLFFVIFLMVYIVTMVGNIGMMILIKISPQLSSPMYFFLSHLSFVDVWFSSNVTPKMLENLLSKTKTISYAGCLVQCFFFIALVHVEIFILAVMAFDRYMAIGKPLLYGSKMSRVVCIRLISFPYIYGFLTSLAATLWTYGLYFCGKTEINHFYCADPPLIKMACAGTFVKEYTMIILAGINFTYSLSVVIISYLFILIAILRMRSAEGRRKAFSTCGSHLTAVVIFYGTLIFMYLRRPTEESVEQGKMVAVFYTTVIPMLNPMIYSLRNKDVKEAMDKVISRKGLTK
The method in brief: (§1)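 Each receptor–molecule pair is labelled responsive or non-responsive (inactive) according to whether the original authors judged the measured signal statistically different from baseline. The data were taken from the main text and supplementary material of published papers and checked for typos and inconsistencies. Assay methods differed by source, with transient luciferase assays in mammalian cell lines being common.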

Protein sequences, listed by entry. Tags and fused reporters are not part of them. Chains listed by the source or under a name are the forms on record and can include a tag or linker.
UniProt D1MFA5, as listed by the source: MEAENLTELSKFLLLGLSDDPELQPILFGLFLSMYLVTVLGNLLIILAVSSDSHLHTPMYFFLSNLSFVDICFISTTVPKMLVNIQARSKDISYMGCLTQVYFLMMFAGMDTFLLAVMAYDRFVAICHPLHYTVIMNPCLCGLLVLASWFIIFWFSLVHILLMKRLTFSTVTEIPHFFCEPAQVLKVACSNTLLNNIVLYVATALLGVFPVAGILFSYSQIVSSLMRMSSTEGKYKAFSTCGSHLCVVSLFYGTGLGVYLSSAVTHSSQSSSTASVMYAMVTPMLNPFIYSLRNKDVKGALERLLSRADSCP
UniProt E1BM68, as listed by the source: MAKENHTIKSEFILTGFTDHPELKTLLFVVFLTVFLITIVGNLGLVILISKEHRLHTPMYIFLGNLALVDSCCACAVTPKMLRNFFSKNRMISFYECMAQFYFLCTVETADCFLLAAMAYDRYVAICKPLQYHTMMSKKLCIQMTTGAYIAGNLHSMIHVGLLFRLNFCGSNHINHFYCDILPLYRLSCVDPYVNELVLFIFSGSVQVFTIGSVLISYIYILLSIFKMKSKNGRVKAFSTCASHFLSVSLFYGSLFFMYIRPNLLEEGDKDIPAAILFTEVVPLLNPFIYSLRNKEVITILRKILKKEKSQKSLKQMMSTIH

Another assay concerns the target T2, UniProt A2AVB0.
T2 sequence (whole entry): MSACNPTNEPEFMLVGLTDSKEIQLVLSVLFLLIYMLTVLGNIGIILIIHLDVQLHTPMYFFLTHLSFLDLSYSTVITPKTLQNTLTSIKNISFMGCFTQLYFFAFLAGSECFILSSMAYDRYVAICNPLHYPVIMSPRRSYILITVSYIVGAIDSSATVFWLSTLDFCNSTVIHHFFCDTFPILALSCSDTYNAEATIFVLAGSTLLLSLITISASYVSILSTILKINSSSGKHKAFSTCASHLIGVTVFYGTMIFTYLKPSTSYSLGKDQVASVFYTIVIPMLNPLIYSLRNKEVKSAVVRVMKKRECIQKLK
The method in brief: as §1

The target in another assay is T3, UniProt E9PVX1.
T3 sequence (whole entry): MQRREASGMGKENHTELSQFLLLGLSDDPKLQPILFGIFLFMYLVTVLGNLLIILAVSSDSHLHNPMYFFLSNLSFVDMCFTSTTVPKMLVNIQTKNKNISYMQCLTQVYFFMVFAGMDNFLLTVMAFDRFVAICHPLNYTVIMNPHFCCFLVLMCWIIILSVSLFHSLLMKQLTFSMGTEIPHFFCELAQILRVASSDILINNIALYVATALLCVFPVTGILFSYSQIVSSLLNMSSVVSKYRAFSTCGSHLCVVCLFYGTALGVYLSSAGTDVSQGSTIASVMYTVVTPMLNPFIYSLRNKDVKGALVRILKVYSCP
The method, boiled down: as §1

A further assay has as its target T4, UniProt E9PX47.
T4 sequence (whole entry): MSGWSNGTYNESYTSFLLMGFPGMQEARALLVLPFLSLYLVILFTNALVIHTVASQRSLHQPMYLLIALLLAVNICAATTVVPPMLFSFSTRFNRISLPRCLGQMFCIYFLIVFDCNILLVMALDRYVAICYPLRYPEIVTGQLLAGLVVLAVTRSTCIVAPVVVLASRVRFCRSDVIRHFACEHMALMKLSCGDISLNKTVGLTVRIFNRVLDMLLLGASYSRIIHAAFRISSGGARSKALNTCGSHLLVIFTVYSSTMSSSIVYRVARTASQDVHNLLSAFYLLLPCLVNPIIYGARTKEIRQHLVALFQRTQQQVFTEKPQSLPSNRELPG
The method, boiled down: as §1

For the next assay, the target named is T5, UniProt E9PXN3.
T5 sequence (whole entry): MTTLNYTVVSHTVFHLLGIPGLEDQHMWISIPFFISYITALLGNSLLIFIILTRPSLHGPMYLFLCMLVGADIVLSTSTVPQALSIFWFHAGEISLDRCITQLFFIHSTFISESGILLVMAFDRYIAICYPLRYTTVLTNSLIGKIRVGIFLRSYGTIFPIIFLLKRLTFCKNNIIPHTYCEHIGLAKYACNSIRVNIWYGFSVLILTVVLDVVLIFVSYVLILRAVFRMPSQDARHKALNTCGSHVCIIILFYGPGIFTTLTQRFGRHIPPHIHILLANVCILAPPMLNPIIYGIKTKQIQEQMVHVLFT
The method, boiled down:
as §1

The next assay concerns the target T6, UniProt E9PZ66.
T6 sequence (whole entry): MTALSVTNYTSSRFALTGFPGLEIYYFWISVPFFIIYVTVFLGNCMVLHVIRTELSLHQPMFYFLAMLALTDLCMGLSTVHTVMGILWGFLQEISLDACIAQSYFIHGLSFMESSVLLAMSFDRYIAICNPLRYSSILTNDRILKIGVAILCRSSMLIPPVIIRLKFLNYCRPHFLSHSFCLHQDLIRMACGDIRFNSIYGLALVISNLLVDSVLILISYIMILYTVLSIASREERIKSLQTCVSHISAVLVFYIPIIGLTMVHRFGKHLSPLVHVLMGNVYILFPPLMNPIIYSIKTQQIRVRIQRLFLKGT
The method, boiled down: as §1

The next assay has as its target T7, UniProt E9Q4X7.
T7 sequence (whole entry): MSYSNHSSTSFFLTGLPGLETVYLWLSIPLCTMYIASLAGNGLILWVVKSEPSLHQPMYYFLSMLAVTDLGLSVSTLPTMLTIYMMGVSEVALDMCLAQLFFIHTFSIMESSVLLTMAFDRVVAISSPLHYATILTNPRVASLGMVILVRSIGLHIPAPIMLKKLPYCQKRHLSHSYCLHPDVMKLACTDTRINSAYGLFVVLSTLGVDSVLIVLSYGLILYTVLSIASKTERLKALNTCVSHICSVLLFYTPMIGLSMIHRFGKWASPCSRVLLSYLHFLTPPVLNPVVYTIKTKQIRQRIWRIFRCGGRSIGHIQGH
The method in brief: as §1

For another assay, the target named is T8, UniProt E9Q546.
T8 sequence (whole entry): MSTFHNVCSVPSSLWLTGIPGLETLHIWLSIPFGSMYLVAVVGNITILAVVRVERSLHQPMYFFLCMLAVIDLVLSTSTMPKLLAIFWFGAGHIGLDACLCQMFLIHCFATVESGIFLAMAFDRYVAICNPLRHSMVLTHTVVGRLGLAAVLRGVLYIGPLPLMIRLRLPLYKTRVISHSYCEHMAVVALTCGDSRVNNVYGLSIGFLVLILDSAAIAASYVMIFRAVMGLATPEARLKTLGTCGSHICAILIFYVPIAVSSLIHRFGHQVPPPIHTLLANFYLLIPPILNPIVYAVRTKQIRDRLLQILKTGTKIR
The method in brief:
as §1

Another assay deals with T9, UniProt A2AVB5.
T9 sequence (whole entry): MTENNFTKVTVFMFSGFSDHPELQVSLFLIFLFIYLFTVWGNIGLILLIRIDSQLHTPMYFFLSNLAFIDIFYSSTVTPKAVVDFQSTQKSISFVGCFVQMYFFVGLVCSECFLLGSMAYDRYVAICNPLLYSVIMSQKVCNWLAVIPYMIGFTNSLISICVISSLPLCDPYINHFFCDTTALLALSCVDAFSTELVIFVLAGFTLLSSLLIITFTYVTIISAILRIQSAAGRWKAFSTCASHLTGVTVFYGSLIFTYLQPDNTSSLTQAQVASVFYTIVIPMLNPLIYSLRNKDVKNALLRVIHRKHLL
The method, boiled down: as §1

The next assay has as its target T10, UniProt B2RVX8.
T10 sequence (whole entry): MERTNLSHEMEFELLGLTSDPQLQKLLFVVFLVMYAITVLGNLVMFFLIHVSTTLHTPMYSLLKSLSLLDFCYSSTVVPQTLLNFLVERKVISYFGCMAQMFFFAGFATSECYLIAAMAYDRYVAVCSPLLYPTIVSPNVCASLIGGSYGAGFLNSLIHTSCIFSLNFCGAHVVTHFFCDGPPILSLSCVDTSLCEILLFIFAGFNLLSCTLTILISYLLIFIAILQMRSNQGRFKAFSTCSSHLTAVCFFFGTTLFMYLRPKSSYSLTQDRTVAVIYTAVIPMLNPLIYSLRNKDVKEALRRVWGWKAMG
The method, boiled down: as §1

The target in a further assay is UniProt D1MFA5. The method in brief: as §1
A further assay addresses UniProt E1BM68. The method, boiled down:
as §1

Only a part is listed here, and it is no random draw. The calls were merged from several studies; some rest on single wells. This is one part of the list.

16 compounds from the M2OR odorant receptor database can be followed below.
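Note: active if original authors judged signal statistically different from baseline.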

With `CC(C)CC(=O)O`, the “odorant receptor agonist call” value with UniProt A2ATE5, in the assay with UniProt A2AVB0, with UniProt E9PVX1, with UniProt E9PX47, with UniProt E9PXN3 and with UniProt E9Q4X7 was “inactive” in each case. The “odorant receptor agonist call” value with UniProt E9Q546 is “inactive”. Further, in the assay with UniProt E9PZ66, the “odorant receptor agonist call” value was “active”.

`COC(=O)c1ccccc1O`: the “odorant receptor agonist call” value with UniProt A2ATE5, with UniProt A2AVB0, with UniProt E9PVX1, with UniProt E9PZ66, with UniProt E9Q4X7 and with UniProt E9Q546 was “inactive” throughout.

Consider `CCCCCC(C)=O`, for which the “odorant receptor agonist call” value with UniProt A2ATE5, with UniProt A2AVB0, with UniProt A2AVB5, with UniProt B2RVX8, with UniProt E9PVX1 and with UniProt E9PZ66 was “inactive” throughout. The “odorant receptor agonist call” value with UniProt E9Q4X7 and with UniProt E9Q546 was “inactive” throughout.

Take `CC12C=CCC1C1CCC3=CC(=O)CCC3(C)C1CC2` (stereo unspecified): the “odorant receptor agonist call” value with UniProt D1MFA5 is “active”.

As to `CC12CCC(CC1)C(C)(C)O2`, the “odorant receptor agonist call” value in the assay with UniProt A2ATE5, with UniProt A2AVB0, in the assay with UniProt E9PVX1, in the assay with UniProt E9PZ66, with UniProt E9Q4X7 and in the assay with UniProt E9Q546 was “inactive” each time.

As to `C=CCc1ccc(OC)c(OC)c1`, the “odorant receptor agonist call” value with UniProt A2ATE5, with UniProt A2AVB0, with UniProt E9PVX1, in the assay with UniProt E9PZ66, in the assay with UniProt E9Q4X7 and with UniProt E9Q546 was “inactive” in each case. For the same compound, the “odorant receptor agonist call” value in the assay with UniProt E1BM68 was “active”.

For the compound `CCCCCCCCC=O`, the “odorant receptor agonist call” value in the assay with UniProt A2ATE5, in the assay with UniProt A2AVB0, with UniProt A2AVB5, with UniProt B2RVX8, in the assay with UniProt E9PVX1 and with UniProt E9PX47 was “inactive” each time. Also, the “odorant receptor agonist call” value with UniProt E9PXN3, in the assay with UniProt E9PZ66, with UniProt E9Q4X7 and with UniProt E9Q546 was “inactive” in each case.

For the compound `C=CC(C)(O)CCC=C(C)C` (stereo unspecified), the “odorant receptor agonist call” value in the assay with UniProt A2ATE5, with UniProt A2AVB0, with UniProt E9PVX1, in the assay with UniProt E9PZ66, with UniProt E9Q4X7 and with UniProt E9Q546 was “inactive” each time.

For the compound `O=C1CCCCCCCCCCCCCCO1`, the “odorant receptor agonist call” value with UniProt A2ATE5, with UniProt A2AVB0, with UniProt E9PZ66, with UniProt E9Q4X7 and in the assay with UniProt E9Q546 was “inactive” each time. In addition, the “odorant receptor agonist call” value in the assay with UniProt E9PVX1 is “active”.

As for `CC(=O)C(C)=O`, the “odorant receptor agonist call” value with UniProt A2ATE5, with UniProt A2AVB0, with UniProt E9PVX1, in the assay with UniProt E9PZ66, with UniProt E9Q4X7 and with UniProt E9Q546 was “inactive” each time.

As for `COc1ccccc1O`, the “odorant receptor agonist call” value with UniProt A2ATE5, with UniProt A2AVB0, with UniProt E9PVX1, in the assay with UniProt E9PZ66, in the assay with UniProt E9Q4X7 and with UniProt E9Q546 was “inactive” each time.

For the compound `COc1cc(C=O)ccc1O`, the “odorant receptor agonist call” value with UniProt A2ATE5, in the assay with UniProt A2AVB0, with UniProt E9PVX1, with UniProt E9PZ66, with UniProt E9Q4X7 and with UniProt E9Q546 was “inactive” each time.

On to `CCCCCCCCCC=O`, for which the “odorant receptor agonist call” value with UniProt A2ATE5, in the assay with UniProt A2AVB0, with UniProt A2AVB5, with UniProt B2RVX8, with UniProt E9PVX1 and with UniProt E9PXN3 was “inactive” throughout. In addition, the “odorant receptor agonist call” value with UniProt E9PZ66, with UniProt E9Q4X7 and with UniProt E9Q546 was “inactive” each time.

With `CC1COCc2cc3c(cc21)C(C)(C)C(C)C3(C)C` (stereo unspecified), the “odorant receptor agonist call” value with UniProt A2ATE5, with UniProt A2AVB0, with UniProt E9PVX1, with UniProt E9PZ66 and with UniProt E9Q546 was “inactive” in each case. For the same compound, the “odorant receptor agonist call” value with UniProt E9Q4X7 is “active”.

For the compound `CC(=O)OC1CC2CCC1(C)C2(C)C` (stereo unspecified), the “odorant receptor agonist call” value in the assay with UniProt A2ATE5, with UniProt A2AVB0, with UniProt E9PVX1, with UniProt E9PZ66, with UniProt E9Q4X7 and with UniProt E9Q546 was “inactive” throughout.

Consider `CCCCCCCC=O`, for which the “odorant receptor agonist call” value with UniProt A2ATE5, with UniProt A2AVB0, in the assay with UniProt A2AVB5, with UniProt B2RVX8, with UniProt E9PVX1 and with UniProt E9PXN3 was “inactive” each time. In addition, the “odorant receptor agonist call” value in the assay with UniProt E9PZ66, in the assay with UniProt E9Q4X7 and with UniProt E9Q546 was “inactive” throughout.
